In US8242088B2, “Carrier vectors through an epithelium with tight junctions” (Centre National de la Recherche Scientifique, priority 2000, dated 2012):
Part of at least one peptide drawing is inferred or uncertain, most often the ends. No end group written: not given here.

What was measured:
[1] = system: MDCK cells; test: Subcellular localization in MDCK cell cultures (confocal microscopy); format: cell-based, Canine; details: 100 μM, two hours at 4° C.; for labeling (localization) at 4° C.: fixed immediately; for labeling (localization) after transfer to 37° C.: then chase at 37° C. for 30 minutes
[2] = system: cells; test: Penetration and intracellular distribution in cells (summary of the description); format: cell-based

Molecule | entry into cells at 4° C. [1] | labeling (localization) at 4° C. [1] | labeling (localization) after transfer to 37° C. [1] | intracellular location when cells are then brought to 37° C. ([2]; penetration at 4° C., cells then brought to 37° C.) | intracellular location after penetration at 4° C. ([2]; penetration into cells at 4° C.) | intracellular location after penetration at 37° C. ([2]; penetration into cells at 37° C.)
CC[C@H](C)[C@H](NC(=O)[C@H](CCCCN)NC(=O)[C@@H]1CCCN1C(=O)[C@H](CCC(N)=O)NC(=O)[C@H](CCCNC(=N)N)NC(=O)[C@H](CCC(=O)O)NC(=O)[C@H](CC(N)=O)NC(=O)[C@H](CC(C)C)NC(=O)CNC(=O)[C@H](CC(C)C)NC(=O)[C@H](CCC(=O)O)NC(=O)[C@H](CCC(N)=O)NC(=O)[C@H](C)NC(=O)[C@H](CC(C)C)NC(=O)[C@H](CO)NC(=O)[C@H](CCC(N)=O)NC(=O)CCCCNC(=O)CCCC[C@@H]1SC[C@@H]2NC(=O)N[C@@H]21)C(=O)N[C@@H](Cc1c[nH]c2ccccc12)C(=O)N[C@@H](Cc1ccccc1)C(=O)N1CCC[C@H]1C(=O)N[C@@H](CC(N)=O)C(=O)N[C@@H](CCCNC(=N)N)C(=O)N[C@@H](CCCNC(=N)N)C(=O)N[C@@H](CCCCN)C(=O)N1CCC[C@H]1C(=O)N[C@@H](Cc1c[nH]c2ccccc12)C(=O)N[C@@H](CCCCN)C(=O)N[C@@H](CCCCN)C(=O)O [NES-Pen3P] | enters | diffuse cytoplasmic and nuclear labeling | strong association of the labeling with intra-cytoplasmic vesicles | – | – | –
CC[C@H](C)[C@H](NC(=O)[C@H](CCCCN)NC(=O)[C@@H](NC(=O)[C@H](CCC(N)=O)NC(=O)[C@H](CCCNC(=N)N)NC(=O)[C@H](CCC(=O)O)NC(=O)[C@H](CC(N)=O)NC(=O)[C@H](CC(C)C)NC(=O)CNC(=O)[C@H](CC(C)C)NC(=O)[C@H](CCC(=O)O)NC(=O)[C@H](CCC(N)=O)NC(=O)[C@H](C)NC(=O)[C@H](CC(C)C)NC(=O)[C@H](CO)NC(=O)[C@H](CCC(N)=O)NC(=O)CCCCNC(=O)CCCC[C@@H]1SC[C@@H]2NC(=O)N[C@@H]21)[C@@H](C)CC)C(=O)N[C@@H](Cc1c[nH]c2ccccc12)C(=O)N[C@@H](Cc1ccccc1)C(=O)N[C@@H](CCC(N)=O)C(=O)N[C@@H](CC(N)=O)C(=O)N[C@@H](CCCNC(=N)N)C(=O)N[C@@H](CCCNC(=N)N)C(=O)N[C@@H](CCSC)C(=O)N[C@@H](CCCCN)C(=O)N[C@@H](Cc1c[nH]c2ccccc12)C(=O)N[C@@H](CCCCN)C(=O)N[C@@H](CCCCN)C(=O)O [NES-Penet] | enters | diffuse labeling, without notable cytoplasmic or nuclear localization | strong association of the labeling with intracytoplasmic vesicles | passes into the vesicular compartment | remain located in the nucleus | mainly located in a vesicular compartment of the cytoplasm
RQPKIWFPNRRKPWKK [Pen3P, RQPKIWFPNRRKPWKK, reference compound] | enters | diffuse cytoplasmic and nuclear labeling | not modified | – | – | –
